No constants are given. Whether binding was seen depends on the method and setting. In cells and extracts the contact can be indirect. For some assays here: Binding calls can cover weak binding; strength is not graded here. Tags and fused reporters may be left off the sequences shown.
Key:
[1] = target: T1, N-terminally tagged Neurospora crassa eIF3k (Neurospora crassa) (UniProt Q7S2R9); test: co-IP; anti-FLAG affinity purification from N. crassa extracts, Coomassie gel and anti-FLAG Western blot; N-terminally tagged eIF3k or eIF3l in the ΔeIF3kl double knock-out background
T1 sequence: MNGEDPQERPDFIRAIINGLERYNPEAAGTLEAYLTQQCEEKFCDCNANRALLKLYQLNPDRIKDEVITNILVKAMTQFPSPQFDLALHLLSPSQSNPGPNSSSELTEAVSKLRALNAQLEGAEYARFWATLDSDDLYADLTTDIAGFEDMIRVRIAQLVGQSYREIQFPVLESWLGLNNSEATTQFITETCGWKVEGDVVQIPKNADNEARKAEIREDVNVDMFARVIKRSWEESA

[2] = target: T2, N-terminally tagged Neurospora crassa eIF3l (Neurospora crassa) (UniProt Q7SB62); test: as above
T2 sequence: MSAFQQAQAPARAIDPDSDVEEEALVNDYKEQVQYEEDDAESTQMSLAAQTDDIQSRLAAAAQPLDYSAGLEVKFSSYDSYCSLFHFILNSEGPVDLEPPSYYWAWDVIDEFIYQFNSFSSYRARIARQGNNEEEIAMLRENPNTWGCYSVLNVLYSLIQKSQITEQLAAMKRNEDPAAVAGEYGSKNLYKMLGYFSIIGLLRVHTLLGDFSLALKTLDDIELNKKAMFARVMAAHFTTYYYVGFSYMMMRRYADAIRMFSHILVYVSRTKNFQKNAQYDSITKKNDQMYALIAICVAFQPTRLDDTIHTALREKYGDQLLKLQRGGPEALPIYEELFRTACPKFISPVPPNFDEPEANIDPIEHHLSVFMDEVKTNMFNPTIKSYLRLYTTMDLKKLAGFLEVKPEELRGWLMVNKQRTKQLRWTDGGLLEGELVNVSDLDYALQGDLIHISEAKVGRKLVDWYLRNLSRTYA

[3] = target: T3, N-terminally tagged Neurospora crassa eIF3h (Neurospora crassa) (UniProt Q7S9Y9); test: co-IP; anti-FLAG affinity purification from N. crassa extracts, FLAG peptide elution, Coomassie gel; N-terminally tagged eIF3h in ΔeIF3h, N-terminally tagged eIF3k in ΔeIF3k, or heterokaryon with N-terminally tagged eIF3k and eIF3l (all 12 subunits present)
T3 sequence: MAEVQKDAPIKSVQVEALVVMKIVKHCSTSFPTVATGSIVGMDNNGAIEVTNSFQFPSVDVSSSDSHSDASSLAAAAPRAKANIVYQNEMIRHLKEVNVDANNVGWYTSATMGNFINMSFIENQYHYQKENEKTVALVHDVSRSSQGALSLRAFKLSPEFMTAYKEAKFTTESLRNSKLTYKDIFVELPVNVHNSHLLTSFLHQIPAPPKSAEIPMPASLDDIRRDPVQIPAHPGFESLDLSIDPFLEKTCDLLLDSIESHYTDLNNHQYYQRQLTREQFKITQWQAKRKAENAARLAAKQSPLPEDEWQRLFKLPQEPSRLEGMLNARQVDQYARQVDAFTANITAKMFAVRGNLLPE

Row | binding [1] | binding [2] | binding [3] | Substance
1 | no binding | no binding |  | phenylalanyl tRNA synthetase beta chain
2 |  |  | binds | Neurospora crassa eIF3d
3 | no binding | no binding |  | tRNA ligase
